The text below walks through data of paper PMC3224144.

No constants are given. Whether binding was seen depends on the method and setting. For some assays here: Binding calls can cover weak binding; strength is not graded here.

Common to all, as to assay: two-hybrid; array-based yeast two-hybrid screens; each protein as bait (Gal4 DNA-binding domain) and as prey (Gal4 activation domain), N- and C-terminal fusions; bait-prey vector pairs pDEST32-pDEST22, pGBKT7g-pGADT7g, pGBKT7g-pGADCg, pGBKCg-pGADCg, pGBKCg-pGADT7g; ten configurations a pair; positives retested
Experiment [1] concerns the target T1, Nu1 (bacteriophage lambda) (UniProt P03707).
T1 sequence: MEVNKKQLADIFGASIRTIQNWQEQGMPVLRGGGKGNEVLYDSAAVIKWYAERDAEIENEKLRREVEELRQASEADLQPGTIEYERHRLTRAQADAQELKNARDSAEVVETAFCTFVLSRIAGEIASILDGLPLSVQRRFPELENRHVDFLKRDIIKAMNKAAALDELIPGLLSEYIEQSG

Experiment [2] addresses T2, RexB (bacteriophage lambda) (UniProt P03759).
T2 sequence: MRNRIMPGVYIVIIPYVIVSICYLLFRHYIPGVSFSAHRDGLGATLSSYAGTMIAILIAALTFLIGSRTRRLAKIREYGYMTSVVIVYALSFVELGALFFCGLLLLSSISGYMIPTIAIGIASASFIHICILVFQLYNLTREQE

The target of experiment [3] is T3, tape measure protein H (bacteriophage lambda) (UniProt P03736).
T3 sequence: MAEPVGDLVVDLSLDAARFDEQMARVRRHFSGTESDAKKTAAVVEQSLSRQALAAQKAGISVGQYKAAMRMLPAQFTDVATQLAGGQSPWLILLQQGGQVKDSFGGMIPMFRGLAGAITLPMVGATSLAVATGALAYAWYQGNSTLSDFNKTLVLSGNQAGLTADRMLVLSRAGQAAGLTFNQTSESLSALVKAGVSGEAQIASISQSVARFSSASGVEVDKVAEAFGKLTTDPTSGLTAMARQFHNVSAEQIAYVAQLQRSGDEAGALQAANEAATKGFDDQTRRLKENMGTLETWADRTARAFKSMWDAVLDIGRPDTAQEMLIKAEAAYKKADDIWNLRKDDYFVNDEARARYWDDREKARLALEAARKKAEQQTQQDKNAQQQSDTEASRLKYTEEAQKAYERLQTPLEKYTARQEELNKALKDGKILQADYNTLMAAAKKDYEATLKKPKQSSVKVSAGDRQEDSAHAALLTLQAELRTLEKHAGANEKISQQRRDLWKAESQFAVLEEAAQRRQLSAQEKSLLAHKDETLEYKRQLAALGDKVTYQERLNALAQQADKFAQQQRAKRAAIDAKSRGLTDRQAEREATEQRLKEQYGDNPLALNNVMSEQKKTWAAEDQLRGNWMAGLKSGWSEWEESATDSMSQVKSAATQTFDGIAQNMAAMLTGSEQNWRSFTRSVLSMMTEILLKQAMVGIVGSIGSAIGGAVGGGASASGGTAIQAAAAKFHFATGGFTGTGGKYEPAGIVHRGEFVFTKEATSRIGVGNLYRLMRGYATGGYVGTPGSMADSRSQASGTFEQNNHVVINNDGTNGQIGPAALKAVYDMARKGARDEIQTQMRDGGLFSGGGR

Experiment [4] addresses T4, Integrase (Int) (bacteriophage lambda) (UniProt P03700).
T4 sequence: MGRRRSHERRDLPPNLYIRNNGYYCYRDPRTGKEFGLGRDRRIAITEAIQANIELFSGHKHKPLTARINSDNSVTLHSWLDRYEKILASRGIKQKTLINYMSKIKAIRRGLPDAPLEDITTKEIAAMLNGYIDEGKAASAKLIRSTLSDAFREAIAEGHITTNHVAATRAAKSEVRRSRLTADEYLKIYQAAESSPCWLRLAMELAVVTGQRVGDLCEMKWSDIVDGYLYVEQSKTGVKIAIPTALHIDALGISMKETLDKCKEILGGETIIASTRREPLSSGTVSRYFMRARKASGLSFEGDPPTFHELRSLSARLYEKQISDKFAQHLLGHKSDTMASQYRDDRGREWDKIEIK

Experiment [5] has as its target T5, DNA packaging protein A (bacteriophage lambda) (UniProt P03708).
T5 sequence: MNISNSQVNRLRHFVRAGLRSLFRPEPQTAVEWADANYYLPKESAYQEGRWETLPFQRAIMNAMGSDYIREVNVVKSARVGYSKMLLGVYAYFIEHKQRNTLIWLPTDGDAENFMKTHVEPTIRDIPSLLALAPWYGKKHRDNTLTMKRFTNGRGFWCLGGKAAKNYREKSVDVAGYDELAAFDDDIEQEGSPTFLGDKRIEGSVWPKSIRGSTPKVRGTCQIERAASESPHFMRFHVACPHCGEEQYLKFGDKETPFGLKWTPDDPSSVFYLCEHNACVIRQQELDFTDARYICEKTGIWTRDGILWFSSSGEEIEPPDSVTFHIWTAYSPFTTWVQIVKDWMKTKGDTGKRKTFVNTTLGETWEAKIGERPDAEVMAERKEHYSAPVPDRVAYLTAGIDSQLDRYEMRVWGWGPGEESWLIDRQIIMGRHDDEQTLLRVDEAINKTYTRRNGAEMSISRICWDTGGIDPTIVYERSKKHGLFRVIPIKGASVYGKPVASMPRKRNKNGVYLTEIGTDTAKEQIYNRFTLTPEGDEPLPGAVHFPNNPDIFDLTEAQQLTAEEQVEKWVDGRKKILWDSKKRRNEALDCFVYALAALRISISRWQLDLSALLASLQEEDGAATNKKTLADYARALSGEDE

The target in the next experiment is T6, U (bacteriophage lambda) (UniProt P03732).
T6 sequence: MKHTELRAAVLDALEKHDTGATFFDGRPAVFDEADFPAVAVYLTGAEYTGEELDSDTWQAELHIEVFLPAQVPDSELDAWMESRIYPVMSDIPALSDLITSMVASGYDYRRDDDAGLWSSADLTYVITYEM

Experiment [6] concerns the target T7, antiterminator N (bacteriophage lambda) (UniProt P03045).
T7 sequence: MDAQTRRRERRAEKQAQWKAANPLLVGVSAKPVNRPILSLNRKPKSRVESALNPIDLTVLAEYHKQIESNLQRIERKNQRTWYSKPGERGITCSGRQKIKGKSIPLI

Experiment [7] has as its target Ea8.5 (bacteriophage lambda).
Experiment [8] concerns the target Orf79 (bacteriophage lambda).
Experiment [9] concerns the target scaffolding protein Nu3 (bacteriophage lambda).

Turning to Orf64 (bacteriophage lambda), in experiment [1], the binding result is “binds”.

For the molecule Ren (bacteriophage lambda), the binding result in [2] and in [3] was “binds” in each case.

Regarding Orf48 (bacteriophage lambda), the binding result in [4] and in experiment [2] was “binds” throughout.

As to Ea47 (bacteriophage lambda), the binding entry in [5] is “no binding”; with U (bacteriophage lambda), “binds”; in [6], “binds”.

B1: NinB (protein, UniProt P03765 1-146)
chain: MKKLTFEIRSPAHQQNAIHAVQQILPDPTKPIVVTIQERNRSLDQNRKLWACLGDVSRQVEWHGRWLDAESWKCVFTAALKQQDVVPNLAGNGFVVIGQSTSRMRVGEFAELLELIQAFGTERGVKWSDEARLALEWKARWGDRAA
Regarding B1, the binding result in [7] and in [8] was “binds” throughout.

B2: Z (protein, UniProt P03731 1-192)
chain: MAIKGLEQAVENLSRISKTAVPGAAAMAINRVASSAISQSASQVARETKVRRKLVKERARLKRATVKNPQARIKVNRGDLPVIKLGNARVVLSRRRRRKKGQRSSLKGGGSVLVVGNRRIPGAFIQQLKNGRWHVMQRVAGKNRYPIDVVKIPMAVPLTTAFKQNIERIRRERLPKELGYALQHQLRMVIKR
Regarding B2, the binding entry in experiment [9] is given as “binds”.
